Source: PubChem BioAssay AID1671190 (National Center for Advancing Translational Sciences (NCATS), 2021)
Hit rate of the full screen: of about 580,000 compounds, about 6,100 (1.1%) were called active. Inconclusive results, whose numbers are uncertain, are shown with a selection of clear calls. The call rests on the fitted dose curve; in most records, active means well fitted inhibition curve with a large enough effect; inconclusive means small, poorly fitted or top-dose-only effect, or another doubt; inactive means no such curve, though single readings can be large or run the other way. Potencies beside an inconclusive call are fits to weak or partial responses and may not hold up.

Chains of the proteins cited; added tags and fusions are not shown. Lines headed by an entry give the natural chain unless they say otherwise; changes in a name come on top.
UniProt P18054: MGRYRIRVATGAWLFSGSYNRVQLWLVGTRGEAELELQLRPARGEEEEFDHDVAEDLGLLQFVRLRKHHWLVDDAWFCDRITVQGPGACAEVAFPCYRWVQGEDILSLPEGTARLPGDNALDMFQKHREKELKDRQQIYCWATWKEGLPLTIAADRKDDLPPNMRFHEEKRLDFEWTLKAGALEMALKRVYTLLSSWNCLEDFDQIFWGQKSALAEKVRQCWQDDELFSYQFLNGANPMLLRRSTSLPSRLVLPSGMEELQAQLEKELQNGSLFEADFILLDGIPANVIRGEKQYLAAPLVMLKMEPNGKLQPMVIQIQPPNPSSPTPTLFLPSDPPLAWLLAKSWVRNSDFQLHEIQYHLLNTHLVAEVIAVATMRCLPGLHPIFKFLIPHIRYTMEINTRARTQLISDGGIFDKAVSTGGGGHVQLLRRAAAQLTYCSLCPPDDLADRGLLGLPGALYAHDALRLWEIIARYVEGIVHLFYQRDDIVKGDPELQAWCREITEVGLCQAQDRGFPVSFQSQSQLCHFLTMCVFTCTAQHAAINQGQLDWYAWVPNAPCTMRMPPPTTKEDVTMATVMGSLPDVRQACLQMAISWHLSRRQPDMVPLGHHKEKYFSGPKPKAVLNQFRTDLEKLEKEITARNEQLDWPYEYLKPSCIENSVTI

Target: Polyunsaturated fatty acid lipoxygenase ALOX12 (Homo sapiens) (UniProt P18054)
Experiment: Primary qHTS assay for inhibitors of human arachidonate 12S-lipoxygenase (ALOX12): Round 2
Settings: purified 12hLO, xylenol orange hydroperoxide absorbance; activity change, negative = inhibition: at 108 µM (top of the series) unless noted
Procedure, shortened: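 Purified human 12hLO at 150 nM in 25 mM Hepes, 0.01% Triton X-100, pH 7.0, preincubated 15 min at room temperature with compound. Reaction started with 40 uM arachidonic acid, 30 min at room temperature. Hydroperoxide measured by Fe-xylenol orange, 573/405 nm absorbance ratio.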
On the % scale 0 is the no-effect control and ±100 the full control effect; potency means the concentration at half of the fitted maximal effect.

Row | Structure (SMILES) | activity change, negative = inhibition | Potency
1 | CC(C)(C)c1ccc(-c2cc(C[C@H]3CNCC[C@H]3CC(=O)N3CCOCC3)no2)cc1 | inactive: 1.23% [at 176 µM] | 
2 | C#CCN(C)C(=O)C[C@@H]1c2nc(NC(=O)c3ccc(OC)cc3)sc2C[C@@H]2[C@](C)(CO)[C@H](O)CC[C@]21C |  | inconclusive: 50.1 µM [inhibitor, partial curve]
3 | O=Cc1cccn1-c1cccc(Cl)c1 |  | inconclusive: 2.51 µM [inhibitor, full curve, poor fit]
4 | C/C(=N/NS(=O)(=O)c1ccc(Cl)cc1)c1ccncc1 |  | inconclusive: 56.2 µM [inhibitor, full curve, poor fit]
5 | O=C(/C=C/c1cn(CC(O)CN2CCCCCC2)c2ccccc12)c1ccccc1 (centres undefined) |  | inconclusive: 56.2 µM [inhibitor, partial curve, poor fit]
6 | Cc1ccc(NC(=O)Cn2c(C)cc3nc4n(c(=O)c32)CCCCC4)cc1Cl |  | inconclusive: 70.8 µM [inhibitor, single point]
7 | CCOC(=O)C(=CNc1ccc2c(c1)c1ccccc1n2CC)C(=O)OCC | inactive: 0% | 
8 | O=C(O)Cn1c(P(=O)(O)c2ccccc2)nc2ccccc21 |  | inconclusive: 11.2 µM [inhibitor, partial curve, poor fit]
9 | CCc1c(C)nc(SCC(=O)Nc2ccc(Br)cc2)[nH]c1=O |  | inconclusive: 0.708 µM [inhibitor, full curve, poor fit]
10 | COc1ccc(N2C(=O)C(CC(=O)Nc3ccccc3)N(Cc3ccc4c(c3)OCO4)C2=O)cc1 (centres undefined) |  | inconclusive: 126 µM [inhibitor, partial curve, poor fit]
11 | COc1cc(NS(=O)(=O)c2ccc(C)cc2)cc2sc(NC(=O)c3ccccc3)nc12 |  | inconclusive: 10 µM [inhibitor, full curve]
12 | O=C(Nc1ccc(F)cc1)N1CCCN(c2ccc(C(F)(F)F)cn2)CC1 |  | inconclusive: 112 µM [inhibitor, partial curve, poor fit]
13 | Cc1nn(C)c2nc(C3CC3)cc(C(=O)N3CCN(c4ncccn4)CC3)c12 |  | inconclusive: 28.2 µM [inhibitor, single point]
14 | CN1CCC2(C1)CN(Cc1ccccc1)c1ccc(C(=O)NCc3cccs3)cc12 (centres undefined) | inactive: -7.78% [at 176 µM] | 
15 | COc1ccc(C(=O)NC(=S)N2CCCC2)cc1 |  | inconclusive: 44.7 µM [inhibitor, partial curve, poor fit]
16 | CCCCN(C(=O)c1cc(S(=O)(=O)N2CCCCC2)ccc1Cl)c1c(N)n(CCC)c(=O)[nH]c1=O |  | inconclusive: 89.1 µM [inhibitor, single point]
17 | CC(C)CC(=O)NC(=S)Nc1nc(-c2cccc3ccccc23)cs1 |  | inconclusive: 5.01 µM [inhibitor, single point]
18 | O=C(NCc1ccncc1)Nc1cccc(Cl)c1 | inactive: 0% | 
19 | CCCCN1CCc2c1nc1ccc(Br)cc1c2N |  | inconclusive: 7.08 µM [inhibitor, full curve, poor fit]
20 | COC(=O)c1cc2occc2n1Cc1nc(-c2ccccc2Cl)oc1C |  | inconclusive: 79.4 µM [inhibitor, single point]
21 | Brc1ccc(-c2csc(NC3CC3)n2)cc1 |  | inconclusive: 44.7 µM [inhibitor, partial curve, poor fit]
22 | CSc1ccc(CNC(=O)CCn2ccc3cc(S(=O)(=O)N4CCCC4)ccc32)cc1 |  | inconclusive: 39.8 µM [inhibitor, partial curve]

Row | Structure (SMILES) | activity change, negative = inhibition | Potency
23 | CN(C)c1cccc(CNC(=O)c2csc(COCCO)n2)c1 |  | inconclusive: 4.47 µM [inhibitor, full curve, poor fit]
24 | O=C(c1csnn1)N1CCC2(CC1)CN(c1ccccc1)C2 | inactive: -0.717% [at 57.4 µM] | 
25 | CC(C)CNC(=O)CSc1ncc(-c2ccc(F)cc2)o1 |  | inconclusive: 100 µM [inhibitor, single point]
26 | O=C(CNc1ccc(Br)cc1)Nc1ccc(C(F)(F)F)cc1 |  | inconclusive: 35.5 µM [inhibitor, partial curve, poor fit]
27 | O=C(COc1cccc(NC(=O)c2ccccc2)c1)c1ccccc1 | inactive: 2.29% | 
28 | Cc1[nH]c(-c2ccc(F)cc2)cc1C(=O)N1CCN(c2ccccc2)CC1 |  | inconclusive: 112 µM [inhibitor, single point]
29 | CCOc1ccc(CCNS(=O)(=O)c2ccc(-c3ccc(=O)[nH]n3)o2)cc1OCC | inactive: 27.9% | 
30 | CC1(C)CC(=O)C(N=Nc2c(Cl)cc(Cl)cc2Cl)=C(O)C1 | inactive: 10.5% | 
31 | COc1ccc(NC(=O)CC2SC(N3CCOCC3)=NC2=O)cc1OC (centres undefined) |  | inconclusive: 89.1 µM [inhibitor, partial curve, poor fit]
32 | COc1ccccc1Cn1c(-c2ccc(F)cc2)nc(C)c(CCO)c1=O |  | inconclusive: 25.1 µM [inhibitor, full curve]
33 | CC(C)n1cnc2cc(NCc3ccco3)ccc21 | inactive: -0.637% | 
34 | CC(=O)Nc1c(-c2cc(=O)oc3ccc(C(C)C)cc23)oc2ccccc12 | inactive: 1.97% | 
35 | CC(Nc1oc(Cc2cccc3ccccc23)nc1C#N)c1ccccc1 (centres undefined) | inactive: 3.37% | 
36 | COc1ccc(S[C@]2(c3nc(C)no3)CC(=O)N(c3ccc(OC)cc3)[C@@H]2c2ccc(OC)cc2)cc1 |  | active: 14.1 µM
37 | O=C(CS(=O)(=O)c1ccc(F)cc1)N1CCOCC1 | inactive: 0% | 
38 | CCc1ccc(C(=O)COC(=O)c2ccco2)cc1 |  | inconclusive: 56.2 µM [inhibitor, partial curve, poor fit]
39 | COc1ccc(NC(=O)c2c(C)nn(Cc3ccccc3)c2Cl)cc1S(=O)(=O)N1CCOCC1 | inactive: 17.1% | 
40 | Cn1nccc1C(=O)N1CCC(Oc2cccc(F)c2)C1 (centres undefined) | inactive: 21.9% | 
41 | Cn1cc(CC(=O)Nc2ccc(Nc3cccnc3)c(Br)c2)c2ccccc21 | inactive: 0.873% | 
42 | CCN(CC)S(=O)(=O)c1ccc(O)c(C(=O)OCC(=O)NC23CC4CC(CC(C4)C2)C3)c1 |  | inconclusive: 89.1 µM [inhibitor, single point]
43 | Cc1ccc(S(=O)(=O)c2nc(NCc3ccc4c(c3)OCO4)sc2Cl)cc1 |  | inconclusive: 31.6 µM [inhibitor, partial curve, poor fit]
44 | Cc1cccc(-n2cc(-c3ccccc3)[nH]c2=S)c1 |  | inconclusive: 2.51 µM [inhibitor, full curve, poor fit]

Some of the entries so far, as a markdown table.

| Row | Structure (SMILES) | activity change, negative = inhibition | Potency |
| --- | --- | --- | --- |
| 26 | O=C(CNc1ccc(Br)cc1)Nc1ccc(C(F)(F)F)cc1 |  | inconclusive: 35.5 µM [inhibitor, partial curve, poor fit] |
| 27 | O=C(COc1cccc(NC(=O)c2ccccc2)c1)c1ccccc1 | inactive: 2.29% |  |
| 28 | Cc1[nH]c(-c2ccc(F)cc2)cc1C(=O)N1CCN(c2ccccc2)CC1 |  | inconclusive: 112 µM [inhibitor, single point] |
